Measured values as given in the supplement of paper PMC10849652.
The list shows a part of the results.

Chains of the proteins cited; added tags and fusions are not shown. Lines headed by an entry give the natural chain unless they say otherwise; changes in a name come on top.
UniProt Q9NRF8: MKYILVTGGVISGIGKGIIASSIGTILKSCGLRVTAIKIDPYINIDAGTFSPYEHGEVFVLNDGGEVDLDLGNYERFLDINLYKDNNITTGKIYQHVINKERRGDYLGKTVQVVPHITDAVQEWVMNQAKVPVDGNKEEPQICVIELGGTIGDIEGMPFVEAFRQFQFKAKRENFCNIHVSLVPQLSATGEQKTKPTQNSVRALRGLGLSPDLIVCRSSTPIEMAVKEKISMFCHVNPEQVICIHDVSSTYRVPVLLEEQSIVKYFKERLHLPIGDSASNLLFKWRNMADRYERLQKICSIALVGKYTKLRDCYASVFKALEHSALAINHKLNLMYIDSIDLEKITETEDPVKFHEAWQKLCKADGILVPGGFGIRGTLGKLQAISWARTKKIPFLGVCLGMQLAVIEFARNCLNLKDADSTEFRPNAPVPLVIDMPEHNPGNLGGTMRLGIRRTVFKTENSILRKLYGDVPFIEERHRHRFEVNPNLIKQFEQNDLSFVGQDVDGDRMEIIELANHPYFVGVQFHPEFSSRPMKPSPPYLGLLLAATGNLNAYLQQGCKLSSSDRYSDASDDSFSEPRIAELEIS
UniProt Q9NXE8: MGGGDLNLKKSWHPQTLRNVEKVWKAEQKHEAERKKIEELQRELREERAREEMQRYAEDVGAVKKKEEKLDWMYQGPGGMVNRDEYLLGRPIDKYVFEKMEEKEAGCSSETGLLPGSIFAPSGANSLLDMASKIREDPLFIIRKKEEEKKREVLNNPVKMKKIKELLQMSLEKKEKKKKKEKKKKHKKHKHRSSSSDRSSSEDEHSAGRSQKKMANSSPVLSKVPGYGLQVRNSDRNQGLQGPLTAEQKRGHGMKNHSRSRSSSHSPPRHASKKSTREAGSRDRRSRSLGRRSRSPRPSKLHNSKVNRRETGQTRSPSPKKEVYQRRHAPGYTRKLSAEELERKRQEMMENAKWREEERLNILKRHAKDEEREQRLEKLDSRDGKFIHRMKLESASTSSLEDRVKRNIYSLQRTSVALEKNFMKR
UniProt Q96F07, whole entry, looked up: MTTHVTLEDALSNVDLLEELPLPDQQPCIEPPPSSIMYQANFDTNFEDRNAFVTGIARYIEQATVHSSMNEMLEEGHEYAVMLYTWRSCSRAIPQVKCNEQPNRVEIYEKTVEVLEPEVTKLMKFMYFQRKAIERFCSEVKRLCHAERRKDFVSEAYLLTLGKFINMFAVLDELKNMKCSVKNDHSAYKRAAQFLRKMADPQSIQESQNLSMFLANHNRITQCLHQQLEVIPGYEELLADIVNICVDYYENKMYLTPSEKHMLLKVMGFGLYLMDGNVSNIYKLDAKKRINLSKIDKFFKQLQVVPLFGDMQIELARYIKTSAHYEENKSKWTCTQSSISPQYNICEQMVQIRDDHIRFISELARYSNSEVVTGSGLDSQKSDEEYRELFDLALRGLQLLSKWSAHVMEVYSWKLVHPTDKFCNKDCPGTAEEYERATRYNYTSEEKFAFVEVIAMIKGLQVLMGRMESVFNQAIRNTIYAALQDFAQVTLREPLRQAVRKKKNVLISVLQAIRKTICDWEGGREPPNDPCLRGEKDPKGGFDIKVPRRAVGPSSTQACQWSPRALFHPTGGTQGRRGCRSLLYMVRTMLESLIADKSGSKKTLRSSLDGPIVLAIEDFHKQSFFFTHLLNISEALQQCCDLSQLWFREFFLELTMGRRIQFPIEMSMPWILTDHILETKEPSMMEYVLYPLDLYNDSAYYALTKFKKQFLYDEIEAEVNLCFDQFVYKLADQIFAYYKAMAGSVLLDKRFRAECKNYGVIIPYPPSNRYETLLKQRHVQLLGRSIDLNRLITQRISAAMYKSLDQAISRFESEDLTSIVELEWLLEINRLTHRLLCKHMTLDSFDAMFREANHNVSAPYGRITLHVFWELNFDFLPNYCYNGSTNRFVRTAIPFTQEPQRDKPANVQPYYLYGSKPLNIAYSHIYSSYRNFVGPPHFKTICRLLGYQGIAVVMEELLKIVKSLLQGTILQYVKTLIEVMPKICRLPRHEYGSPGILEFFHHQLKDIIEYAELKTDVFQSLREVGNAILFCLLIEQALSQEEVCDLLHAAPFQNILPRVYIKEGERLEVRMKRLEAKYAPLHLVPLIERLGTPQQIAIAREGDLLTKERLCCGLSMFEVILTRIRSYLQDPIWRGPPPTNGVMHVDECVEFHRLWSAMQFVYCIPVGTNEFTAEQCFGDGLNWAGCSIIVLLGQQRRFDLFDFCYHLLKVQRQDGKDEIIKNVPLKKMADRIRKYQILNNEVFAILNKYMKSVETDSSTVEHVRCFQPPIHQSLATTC
UniProt Q9NWV4: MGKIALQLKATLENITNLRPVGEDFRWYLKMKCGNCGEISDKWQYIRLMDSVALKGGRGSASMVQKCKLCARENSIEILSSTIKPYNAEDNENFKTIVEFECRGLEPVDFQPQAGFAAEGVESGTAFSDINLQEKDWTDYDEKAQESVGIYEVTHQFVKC
UniProt P99999: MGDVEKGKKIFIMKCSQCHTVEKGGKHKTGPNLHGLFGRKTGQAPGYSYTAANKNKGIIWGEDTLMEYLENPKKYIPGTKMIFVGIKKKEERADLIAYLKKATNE
UniProt Q6PI48: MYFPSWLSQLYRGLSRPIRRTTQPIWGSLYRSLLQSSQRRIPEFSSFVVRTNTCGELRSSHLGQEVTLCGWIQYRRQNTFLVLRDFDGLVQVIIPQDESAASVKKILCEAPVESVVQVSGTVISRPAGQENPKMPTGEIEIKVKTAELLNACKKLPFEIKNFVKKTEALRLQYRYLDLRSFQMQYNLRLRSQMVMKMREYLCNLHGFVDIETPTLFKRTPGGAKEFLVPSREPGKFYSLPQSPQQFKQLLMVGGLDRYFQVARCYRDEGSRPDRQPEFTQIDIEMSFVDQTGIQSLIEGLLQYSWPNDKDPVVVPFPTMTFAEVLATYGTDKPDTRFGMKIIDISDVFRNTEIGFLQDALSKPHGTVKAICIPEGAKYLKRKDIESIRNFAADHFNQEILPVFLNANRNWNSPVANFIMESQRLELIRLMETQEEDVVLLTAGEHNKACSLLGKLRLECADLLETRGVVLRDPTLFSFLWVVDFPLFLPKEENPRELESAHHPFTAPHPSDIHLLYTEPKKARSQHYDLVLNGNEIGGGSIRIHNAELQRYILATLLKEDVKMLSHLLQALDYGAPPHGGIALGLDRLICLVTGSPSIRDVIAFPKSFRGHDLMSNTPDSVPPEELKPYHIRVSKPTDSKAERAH
UniProt Q13561, whole entry, looked up: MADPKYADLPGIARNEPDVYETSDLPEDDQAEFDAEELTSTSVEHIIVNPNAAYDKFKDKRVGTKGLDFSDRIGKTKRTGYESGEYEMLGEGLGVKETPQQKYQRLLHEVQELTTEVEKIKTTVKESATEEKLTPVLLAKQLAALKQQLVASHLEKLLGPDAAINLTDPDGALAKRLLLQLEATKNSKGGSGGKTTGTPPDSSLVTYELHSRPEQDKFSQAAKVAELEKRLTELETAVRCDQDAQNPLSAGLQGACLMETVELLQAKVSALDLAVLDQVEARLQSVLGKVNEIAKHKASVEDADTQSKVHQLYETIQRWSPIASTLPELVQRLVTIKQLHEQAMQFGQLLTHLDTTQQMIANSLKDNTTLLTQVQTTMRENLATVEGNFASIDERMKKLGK
UniProt Q05048: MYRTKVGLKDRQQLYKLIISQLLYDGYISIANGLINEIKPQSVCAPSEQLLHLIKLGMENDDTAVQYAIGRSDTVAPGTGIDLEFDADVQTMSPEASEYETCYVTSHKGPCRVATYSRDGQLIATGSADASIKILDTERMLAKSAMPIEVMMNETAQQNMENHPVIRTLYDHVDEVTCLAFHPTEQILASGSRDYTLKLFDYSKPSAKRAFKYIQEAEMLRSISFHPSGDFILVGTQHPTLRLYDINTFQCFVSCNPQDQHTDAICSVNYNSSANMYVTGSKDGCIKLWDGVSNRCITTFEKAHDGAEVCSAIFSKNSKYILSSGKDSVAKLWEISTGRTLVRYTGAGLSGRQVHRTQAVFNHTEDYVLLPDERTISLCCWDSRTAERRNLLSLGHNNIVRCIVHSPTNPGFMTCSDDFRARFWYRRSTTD
UniProt Q8WVC6: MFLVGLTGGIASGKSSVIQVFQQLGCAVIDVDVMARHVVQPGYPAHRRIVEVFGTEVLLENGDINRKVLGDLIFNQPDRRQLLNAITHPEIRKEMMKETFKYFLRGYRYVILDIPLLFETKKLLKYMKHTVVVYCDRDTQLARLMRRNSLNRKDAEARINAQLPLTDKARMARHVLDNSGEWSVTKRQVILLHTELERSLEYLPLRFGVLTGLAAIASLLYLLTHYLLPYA
UniProt Q8TEB1, whole entry, looked up: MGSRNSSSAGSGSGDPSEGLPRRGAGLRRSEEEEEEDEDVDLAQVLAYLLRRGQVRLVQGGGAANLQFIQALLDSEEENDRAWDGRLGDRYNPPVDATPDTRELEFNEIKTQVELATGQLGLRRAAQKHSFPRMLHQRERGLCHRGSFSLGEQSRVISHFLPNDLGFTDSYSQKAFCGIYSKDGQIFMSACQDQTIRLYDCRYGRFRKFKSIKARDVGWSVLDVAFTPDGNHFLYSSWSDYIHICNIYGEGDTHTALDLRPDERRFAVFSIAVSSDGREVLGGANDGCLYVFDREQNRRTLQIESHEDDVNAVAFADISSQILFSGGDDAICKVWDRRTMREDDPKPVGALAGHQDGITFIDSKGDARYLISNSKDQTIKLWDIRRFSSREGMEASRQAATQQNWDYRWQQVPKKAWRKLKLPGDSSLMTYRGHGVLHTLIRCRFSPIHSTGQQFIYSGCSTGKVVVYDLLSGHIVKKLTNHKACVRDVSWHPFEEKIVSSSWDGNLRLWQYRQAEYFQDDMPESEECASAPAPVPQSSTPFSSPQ
UniProt Q9H0L4: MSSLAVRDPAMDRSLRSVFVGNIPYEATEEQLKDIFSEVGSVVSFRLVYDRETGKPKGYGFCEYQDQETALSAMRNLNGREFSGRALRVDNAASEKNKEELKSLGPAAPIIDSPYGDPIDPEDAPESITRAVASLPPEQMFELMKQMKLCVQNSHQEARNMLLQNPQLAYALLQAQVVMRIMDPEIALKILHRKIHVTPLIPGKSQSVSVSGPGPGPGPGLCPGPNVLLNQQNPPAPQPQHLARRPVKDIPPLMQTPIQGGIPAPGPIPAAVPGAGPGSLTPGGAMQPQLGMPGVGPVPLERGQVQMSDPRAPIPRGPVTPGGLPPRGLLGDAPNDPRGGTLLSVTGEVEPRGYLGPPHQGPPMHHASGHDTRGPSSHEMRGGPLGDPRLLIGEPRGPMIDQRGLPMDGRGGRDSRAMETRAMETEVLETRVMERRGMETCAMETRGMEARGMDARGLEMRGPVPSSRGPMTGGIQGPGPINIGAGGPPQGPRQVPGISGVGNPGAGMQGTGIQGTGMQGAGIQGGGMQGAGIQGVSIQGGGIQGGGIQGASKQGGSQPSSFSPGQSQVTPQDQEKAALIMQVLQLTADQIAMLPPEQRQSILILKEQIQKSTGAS
UniProt Q96C86: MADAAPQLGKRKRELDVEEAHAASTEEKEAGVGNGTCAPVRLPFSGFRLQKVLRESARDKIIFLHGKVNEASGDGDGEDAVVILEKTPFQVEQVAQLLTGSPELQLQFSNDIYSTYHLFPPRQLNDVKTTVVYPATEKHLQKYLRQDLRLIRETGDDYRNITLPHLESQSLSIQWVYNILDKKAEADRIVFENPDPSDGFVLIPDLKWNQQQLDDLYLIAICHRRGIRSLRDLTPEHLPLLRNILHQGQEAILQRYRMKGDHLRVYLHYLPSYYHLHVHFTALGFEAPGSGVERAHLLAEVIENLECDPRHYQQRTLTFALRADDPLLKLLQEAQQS
UniProt O43310: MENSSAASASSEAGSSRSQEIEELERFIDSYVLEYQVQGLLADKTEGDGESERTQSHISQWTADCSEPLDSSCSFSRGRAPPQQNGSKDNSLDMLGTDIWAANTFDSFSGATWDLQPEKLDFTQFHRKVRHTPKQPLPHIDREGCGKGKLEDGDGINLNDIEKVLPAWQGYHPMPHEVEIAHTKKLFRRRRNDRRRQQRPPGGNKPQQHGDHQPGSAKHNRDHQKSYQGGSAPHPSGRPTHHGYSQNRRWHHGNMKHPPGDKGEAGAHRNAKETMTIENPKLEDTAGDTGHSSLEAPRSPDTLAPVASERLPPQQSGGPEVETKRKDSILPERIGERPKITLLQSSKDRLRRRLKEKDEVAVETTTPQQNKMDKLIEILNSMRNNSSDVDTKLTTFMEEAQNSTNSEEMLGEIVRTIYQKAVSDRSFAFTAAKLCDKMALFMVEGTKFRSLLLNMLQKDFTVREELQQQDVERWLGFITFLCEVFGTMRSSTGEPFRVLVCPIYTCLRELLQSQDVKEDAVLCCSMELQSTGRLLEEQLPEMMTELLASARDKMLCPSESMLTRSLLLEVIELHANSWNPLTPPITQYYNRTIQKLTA

Each target was assayed with C1=CC=C(C=C1)C2=NC(=C(N2)C3=CC=NC=C3)C4=CC(=C(C=C4)Cl)O (assay: log2 fold change, soluble protein after heating vs DMSO (PISA); higher = thermal stabilisation; K562 cells, 10 uM, 30 min; active = over 0.2 and 3.5 SD of the protein, either way, in both replicates (recomputed)).
How it was run: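 K562 cells at 2×10^6 cells/mL were treated for 30 min with 10 μM compound, and aliquots were heated for 3 min over 48°C-58°C before pooling. Extraction used PBS with 0.5% NP-40 at 4°C, and soluble protein was the supernatant after 21,000xg for 90 min, measured by TMTpro 16plex LC-MS/MS with channel sums equalised. Thermal stability values, relative to control samples and from duplicates, are log2 fold changes.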

log2 fold change, inactive:
CTPS2 (UniProt Q9NRF8) 0.029
CWC25 (UniProt Q9NXE8) -0.134
CYFIP2 (UniProt Q96F07) 0.027
CZIB (UniProt Q9NWV4) -0.008
DARS (UniProt P14868) -0.021
CYCS (UniProt P99999) -0.044
DARS2 (UniProt Q6PI48) 0.014
DAP3 (UniProt P51398) 0.014
CTBP1 (UniProt Q13363) -0.007
DCTN2 isoform 2 (UniProt Q13561) 0.032
CSTF1 (UniProt Q05048) -0.073
DCAKD (UniProt Q8WVC6) -0.067
DCK (UniProt P27707) 0.01
CYB5R4 (UniProt Q7L1T6) 0.061
CWF19L1 (UniProt Q69YN2) -0.042
DCAF11 (UniProt Q8TEB1) -0.039
CSTF2T (UniProt Q9H0L4) -0.005
CTU2 (UniProt Q2VPK5) -0.008
CUL2 isoform 2 (UniProt Q13617) 0.046
CTNNA2 (UniProt P26232) -0.045
CYB5R2 (UniProt Q6BCY4) -0.072
DCPS (UniProt Q96C86) -0.033
CTIF isoform 2 (UniProt O43310) -0.006
